In this assay the target is T1, FANCA (human (endogenous in 293FT and EndoC-βH3)) (UniProt O15360).
T1 sequence: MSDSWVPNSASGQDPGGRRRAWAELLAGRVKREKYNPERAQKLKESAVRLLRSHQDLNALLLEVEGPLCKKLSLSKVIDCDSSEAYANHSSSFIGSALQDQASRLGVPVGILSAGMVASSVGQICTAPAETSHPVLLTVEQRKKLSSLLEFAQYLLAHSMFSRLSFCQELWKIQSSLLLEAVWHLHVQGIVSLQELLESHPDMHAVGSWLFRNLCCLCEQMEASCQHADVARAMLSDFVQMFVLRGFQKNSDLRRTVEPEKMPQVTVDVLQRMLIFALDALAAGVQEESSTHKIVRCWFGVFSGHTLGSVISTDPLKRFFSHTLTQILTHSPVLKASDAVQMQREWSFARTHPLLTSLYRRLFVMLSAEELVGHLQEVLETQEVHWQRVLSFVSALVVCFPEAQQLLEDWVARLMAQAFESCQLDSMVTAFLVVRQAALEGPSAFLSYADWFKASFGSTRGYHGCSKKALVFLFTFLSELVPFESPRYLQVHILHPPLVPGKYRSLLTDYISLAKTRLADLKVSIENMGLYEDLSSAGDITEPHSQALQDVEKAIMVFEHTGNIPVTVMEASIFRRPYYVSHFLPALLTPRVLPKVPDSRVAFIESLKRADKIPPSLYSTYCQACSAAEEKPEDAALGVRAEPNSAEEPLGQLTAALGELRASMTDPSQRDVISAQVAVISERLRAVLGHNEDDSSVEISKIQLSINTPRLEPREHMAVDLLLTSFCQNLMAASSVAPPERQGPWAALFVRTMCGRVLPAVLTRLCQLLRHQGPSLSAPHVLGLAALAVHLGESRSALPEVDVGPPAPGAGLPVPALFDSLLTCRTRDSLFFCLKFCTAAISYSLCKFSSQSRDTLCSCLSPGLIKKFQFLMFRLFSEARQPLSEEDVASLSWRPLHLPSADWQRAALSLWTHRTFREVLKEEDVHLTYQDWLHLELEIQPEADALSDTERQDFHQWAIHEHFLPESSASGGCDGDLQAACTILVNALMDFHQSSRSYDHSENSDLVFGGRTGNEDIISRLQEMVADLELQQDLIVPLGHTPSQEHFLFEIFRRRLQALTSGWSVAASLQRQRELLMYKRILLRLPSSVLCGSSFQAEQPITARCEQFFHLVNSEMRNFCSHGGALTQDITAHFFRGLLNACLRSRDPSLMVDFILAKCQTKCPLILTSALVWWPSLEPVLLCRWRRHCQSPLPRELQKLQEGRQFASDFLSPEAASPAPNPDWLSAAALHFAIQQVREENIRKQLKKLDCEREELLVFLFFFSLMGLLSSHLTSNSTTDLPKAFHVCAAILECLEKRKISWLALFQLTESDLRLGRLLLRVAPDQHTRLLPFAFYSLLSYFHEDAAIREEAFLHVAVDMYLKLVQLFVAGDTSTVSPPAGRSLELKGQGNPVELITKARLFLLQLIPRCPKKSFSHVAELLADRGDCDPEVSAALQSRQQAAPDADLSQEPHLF
The experiment in a line: co-IP; endogenous FANCA precipitated from EndoC-βH3 lysate with anti-FANCA antibody on Dynabeads; western blot for PIK3C2A and TFRC. (Immunoblotting shows a protein as a band on a membrane.)

The chains behind the UniProt entries cited, without tags or fusion partners.
UniProt O00443: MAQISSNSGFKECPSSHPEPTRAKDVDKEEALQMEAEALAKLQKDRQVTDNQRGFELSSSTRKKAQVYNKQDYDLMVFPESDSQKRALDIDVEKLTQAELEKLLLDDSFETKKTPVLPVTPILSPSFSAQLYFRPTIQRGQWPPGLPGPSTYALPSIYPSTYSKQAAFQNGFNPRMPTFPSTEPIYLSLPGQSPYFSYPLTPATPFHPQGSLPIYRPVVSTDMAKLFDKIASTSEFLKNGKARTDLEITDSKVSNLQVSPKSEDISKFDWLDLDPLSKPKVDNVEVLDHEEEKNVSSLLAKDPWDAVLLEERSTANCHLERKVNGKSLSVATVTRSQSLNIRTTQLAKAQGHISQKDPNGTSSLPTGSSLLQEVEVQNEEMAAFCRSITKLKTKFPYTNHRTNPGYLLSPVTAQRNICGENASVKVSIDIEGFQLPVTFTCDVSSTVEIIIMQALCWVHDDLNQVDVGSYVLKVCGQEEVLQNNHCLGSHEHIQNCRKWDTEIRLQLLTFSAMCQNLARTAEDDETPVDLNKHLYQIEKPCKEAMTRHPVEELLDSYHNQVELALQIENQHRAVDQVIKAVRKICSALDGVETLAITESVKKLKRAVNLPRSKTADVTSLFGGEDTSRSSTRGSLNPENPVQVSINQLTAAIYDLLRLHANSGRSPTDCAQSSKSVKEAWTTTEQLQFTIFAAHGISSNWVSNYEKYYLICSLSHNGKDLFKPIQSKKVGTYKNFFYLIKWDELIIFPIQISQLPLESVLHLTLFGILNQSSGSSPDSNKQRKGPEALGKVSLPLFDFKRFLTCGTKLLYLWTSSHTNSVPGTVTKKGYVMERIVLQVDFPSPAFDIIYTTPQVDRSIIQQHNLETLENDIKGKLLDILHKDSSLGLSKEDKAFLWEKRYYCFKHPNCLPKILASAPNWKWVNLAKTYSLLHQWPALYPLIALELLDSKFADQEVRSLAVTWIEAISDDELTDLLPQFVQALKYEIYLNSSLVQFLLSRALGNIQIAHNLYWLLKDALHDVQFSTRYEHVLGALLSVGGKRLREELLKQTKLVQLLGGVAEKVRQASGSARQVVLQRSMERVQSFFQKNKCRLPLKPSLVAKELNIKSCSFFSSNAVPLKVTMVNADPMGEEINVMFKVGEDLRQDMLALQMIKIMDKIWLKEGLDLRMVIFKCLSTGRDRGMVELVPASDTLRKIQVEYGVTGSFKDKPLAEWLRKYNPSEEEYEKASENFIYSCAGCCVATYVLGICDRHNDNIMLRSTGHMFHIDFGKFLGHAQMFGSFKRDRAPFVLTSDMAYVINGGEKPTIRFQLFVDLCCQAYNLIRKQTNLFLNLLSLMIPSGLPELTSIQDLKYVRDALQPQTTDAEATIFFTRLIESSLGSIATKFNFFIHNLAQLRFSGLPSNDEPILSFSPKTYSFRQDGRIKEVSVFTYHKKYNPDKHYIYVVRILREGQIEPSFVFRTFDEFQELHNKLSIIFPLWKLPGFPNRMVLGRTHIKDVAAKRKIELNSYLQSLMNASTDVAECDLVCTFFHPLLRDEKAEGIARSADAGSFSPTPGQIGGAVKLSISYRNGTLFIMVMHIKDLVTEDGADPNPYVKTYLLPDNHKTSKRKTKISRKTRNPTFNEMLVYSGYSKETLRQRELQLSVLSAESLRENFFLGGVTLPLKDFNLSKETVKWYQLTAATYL

No constants are given. Whether binding was seen depends on the method and setting. Binding seen in cells or lysates may run through a third protein. Some binding calls cover weakened binding; strength is not graded here.

With “Phosphatidylinositol 4-phosphate 3-kinase C2 domain-containing subunit alpha (from UniProt O00443 1-1686)”, the binding entry is “binds”.

(Values after PMC6713327.)
